PubChem BioAssay AID493014 (National Center for Advancing Translational Sciences (NCATS), 2011)
The other results are listed elsewhere or left out. Further columns of the screen follow, without active or inactive calls. Most of these compounds were active or inconclusive in the main read-out, so they are no random draw. Words in brackets tell the shape of the fitted curve; partial curves, single points and poor fits give uncertain potencies.

Assay: qHTS Assay to Find Inhibitors of Chronic Active B-Cell Receptor Signaling
Conditions: ABC-DLBCL IkBa-CBG/CBR reporter, luminescence ratio (green luciferase fused to IkBa over red control in TMD8 lymphoma cells), 4 h
Method in brief: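 Concentration-response series (up to 46 uM) were applied to TMD8 dual-reporter cells for 4 h at 37C with doxycycline. Green/red ratio, after filter-overlap correction, defined %Activity; red signal alone was normalised to basal cells and zero luminescence.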

[1] = measured here: CBR red luminescence, cell number

| Structure (SMILES) | AC50 [1] | AC50 (measured here: IkBa-CBG green luminescence) |
| --- | --- | --- |
| CCOC(=O)NC(=O)/C(C#N)=N/Nc1ccc(F)cc1 | 29.1 µM [falling, single point] |  |
| O=C(CCc1ccccc1)Nc1ccc(S(=O)(=O)N2CCOCC2)cc1 | 31.6 µM [rising, single point] |  |
| CSc1ncccc1C(=O)OCC(=O)N1CCN(C(=O)c2ccco2)CC1 | 20.6 µM [rising, single point] |  |
| COC(=O)c1cc(-c2ccccc2)sc1NC(=O)c1cc(C)on1 | 0.58 µM [rising, full curve] |  |
| CN(Cc1ccccc1)C(=O)CSc1n[nH]c(N)n1 | 0.447 µM [rising, full curve, poor fit] |  |
| CCOC(=O)c1sc(=NC(=O)c2ccc(Cl)s2)n(C)c1C | 0.891 µM [falling, full curve] |  |
| COc1ccccc1N1CCN(C(=O)c2ccc(Br)s2)CC1 | 6.31 µM [rising, partial curve, poor fit] |  |
| Cc1[nH]n(-c2ccccc2)c(=O)c1C=Nc1ccc(S(=O)(=O)NC(N)=O)cc1 | 0.282 µM [rising, full curve, poor fit] |  |
| O=S(=O)(Cc1ccccc1Cl)N1CCCCC1 | 0.631 µM [rising, full curve, poor fit] |  |
| Cc1cc(C)n(CCN(C)Cc2cn[nH]c2-c2ccc(F)cc2F)n1 | 4.47 µM [rising, full curve, poor fit] |  |
| O=C(Nc1ccc(C(F)(F)F)cc1)C1CCCN1S(=O)(=O)c1cccc2cccnc12 (stereo not drawn) | 3.55 µM [rising, partial curve, poor fit] |  |
| COc1ccc(-c2sc(Nc3ccccc3)n[n+]2-c2ccccc2)cc1Br | 23.1 µM [falling, single point] |  |
| CCN1CCN(C(=O)c2ccc3c(c2)N(Cc2cccc(Cl)c2)C(=O)c2ccccc2S3(=O)=O)CC1 | 35.5 µM [falling, partial curve, poor fit] |  |
| C/C(CC(=O)Nc1ccc2ccccc2c1)=N\NC(=O)c1cnccn1 | 29.1 µM [falling, single point] |  |
| CNC(=S)N1CCN(c2c(F)cc3c(=O)c(C(=O)O)cn(C4CC4)c3c2OC)CC1C (stereo not drawn) | 0.116 µM [falling, full curve, poor fit] |  |
| Cc1ccc(NS(=O)(=O)c2ccc(NC(=O)C3CCCO3)cc2)cc1 (stereo not drawn) | 5.17 µM [rising, full curve, poor fit] |  |
| COC(=O)/C(=C\c1cc(OC)c(OC)c(OC)c1)c1nc2ccccc2[nH]1 | 7.08 µM [falling, partial curve] |  |
| Clc1ccc(-c2nc3ccncc3[nH]2)cc1 | 16.4 µM [falling, partial curve, poor fit] |  |
| c1ccc(CNc2nc(NCc3ccccc3)c3ccccc3n2)cc1 | 35.5 µM [falling, single point] |  |
| CCOC(=O)c1c(N)sc(C(=O)Nc2ccc3c(c2)OCO3)c1C | 2.59 µM [falling, partial curve, poor fit] |  |
| Cc1cccc(NC(=O)C2CCN(C(=O)[C@@H]3Cc4ccccc4CN3)CC2)c1 | 12.6 µM [falling, single point] |  |

| Structure (SMILES) | AC50 [1] | AC50 (measured here: IkBa-CBG green luminescence) |
| --- | --- | --- |
| C/C(=N\OCC(=O)Nc1ccccc1C(=O)O)c1cccs1 | 6.31 µM [falling, partial curve] |  |
| COc1ccc(C(=O)Nc2cccc(/C=C/c3nc4ccccc4c(=O)[nH]3)c2)cc1 | 3.98 µM [falling, full curve] |  |
| CCOC(=O)c1sc(NC(=O)C(CC)OC(=O)c2ccco2)nc1C (stereo not drawn) | 10 µM [falling, partial curve] |  |
| O=C(c1cc2ccccc2o1)N(Cc1nnc(-c2ccccc2Cl)o1)C1CC1 | 5.8 µM [rising, full curve] |  |
| Cc1[nH]c2ccccc2c1C(O)CN1CCC2(CC1)OCCO2 (stereo not drawn) | 35.5 µM [falling, single point] |  |
| CCOC(=O)C1=C(COC(=O)c2ccc([N+](=O)[O-])o2)NC(=O)NC1C (stereo not drawn) | 29.1 µM [rising, single point] |  |
| CCN(CC)S(=O)(=O)c1ccccc1/C=N\O | 6.51 µM [falling, single point] |  |
| O=C(Nc1nsc(-c2ccccc2)n1)c1ccc(F)cc1 | 3.98 µM [falling, full curve] |  |
| N#Cc1c(NC(=O)/C=C/c2ccco2)sc2c1CCCC2 | 0.92 µM [rising, full curve] | 1.03 µM [falling, full curve] |
| Cc1cc(OCCN2CCOCC2)nc2ccccc12 | 0.447 µM [rising, partial curve, poor fit] |  |
| Cc1ccccc1C(=O)Oc1ccc(Sc2ccc(O)cc2)cc1 | 31.6 µM [rising, single point] |  |
| Cc1noc(C)c1CSc1nnnn1-c1ccc(Cl)cc1 | 12.6 µM [rising, partial curve] |  |
| CCn1cc(CN2CCC(C(=O)Nc3cccc(-c4cccc(Cl)c4)c3)CC2)c(C)n1 | 35.5 µM [falling, single point] |  |
| COc1cccc(-c2cc(-c3cccnc3)c(C#N)c(N)n2)c1 | 15.8 µM [falling, partial curve, poor fit] |  |
| COC(=O)[C@H](C)NC(=O)c1cc2c(cn1)[nH]c1ccccc12 | 25.1 µM [falling, single point] |  |
| O=C(NC1CCCCC1)c1cc(C2CC2)nn1-c1ccccc1 | 20.6 µM [rising, partial curve, poor fit] |  |
| CCC1(c2ccc(C)cc2)NC(=O)N(CC(=O)Nc2cccc(S(=O)(=O)N3CCCC3)c2)C1=O (stereo not drawn) | 29.1 µM [rising, single point] |  |
| CC(=O)Nc1ccc(NC(=O)Nc2ccc(C)cc2C)cc1 | 11.2 µM [rising, single point] |  |
| Cc1ccc(-c2nc3ccc(Cl)cc3c(=O)n2O)cc1 | 7.94 µM [falling, partial curve, poor fit] |  |
| Cn1c(=O)[nH]c(=O)c2c1nc(N1CCOCC1)n2CCN1CCOCC1 | 6.31 µM [falling, single point] |  |
| CN(/N=C/c1ccncc1)C1=NCCN1 | 10 µM [falling, partial curve, poor fit] |  |

In another format: entries from further up
Structure (SMILES)	AC50 [1]	AC50 (measured here: IkBa-CBG green luminescence)
COc1ccc(C(=O)Nc2cccc(/C=C/c3nc4ccccc4c(=O)[nH]3)c2)cc1	3.98 µM [falling, full curve]	
CCOC(=O)c1sc(NC(=O)C(CC)OC(=O)c2ccco2)nc1C (stereo not drawn)	10 µM [falling, partial curve]	
O=C(c1cc2ccccc2o1)N(Cc1nnc(-c2ccccc2Cl)o1)C1CC1	5.8 µM [rising, full curve]	
